Data reported in article PMC5966398.

Assays:
[1] = target: T1, SpYY1 (native, ova lysate) (Strongylocentrotus purpuratus) (UniProt A0A7M7RHL1); experiment: EMSA; settings: 50 mM NaCl, 50 mM Tris-HCl pH 7.5, 2 mM MgCl2, 1 mM DTT, 5% glycerol, room temperature 20 min, 10 nM probe, protein in an extract, unlabelled as competitor
[2] = target: T1, SpYY1 (native, ova lysate) (Strongylocentrotus purpuratus); experiment: competition with a labelled probe; settings: 50 mM NaCl, 50 mM Tris-HCl pH 7.5, 2 mM MgCl2, 1 mM DTT, 5% glycerol, room temperature 20 min, 10 nM probe, protein in an extract, unlabelled as competitor

Measured: binding result

UUUUUUUUUUUUUUUUUUUU [U(20) RNA]
binds: [1]; with or without RNase pretreatment (no difference), label: 5'-32P when probe | [2]; 10x excess vs U(20) probe, label: 5'-32P when probe | [2]; 10x excess vs YY1 DNA probe, label: 5'-32P when probe

CTAGGCGCTCCCCGGCCATCTTGGCGGCTGGT (double strand) [YY1 consensus DNA element (YY1C)]
binds: [1]; with or without RNase (no significant change), label: 32P end-fill when probe | [2]; 10x excess vs U(20) probe, label: 32P end-fill when probe | [2]; 10x excess vs YY1 DNA probe, label: 32P end-fill when probe

For at least one entry, the source does not settle the construct or the ends of the probe. Where cells or extracts were used, other partners may take part.
